Experimental data from the supplement of paper PMC6289059.
Where “and” joins values, the source holds several entries; their conditions need not be identical. Equal values may be shown once. Some of the results follow. Many values rest on one well or one pass, so single values are uncertain.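 The assay uses human stem cell-derived hepatocyte-like cells whose DGUOK gene was disrupted by CRISPR, modeling liver mtDNA depletion syndrome. ATP signals were scored within each plate, and any drug with a score of at least 3 was called a primary hit.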

Each compound was assayed on DGUOK Δ14/Δ5 iPSC-derived hepatocyte-like cells (SV20) (assay: ATP level (CellTiter-Glo luminescence) Z score relative to plate distribution, under 2-DG glycolysis block; higher = more cellular ATP (rescue of mitochondrial ATP production)). Conditions: 5 µM; treatment time: day 15 to day 20 of differentiation (5 days); 2-deoxy-D-glucose: 20 mM for 24 h before assay.

SMILES | ATP level
Clc1ccc2c(c1)C(N1CCNCC1)=Nc1ccccc1O2 | inactive: -17.3
O=C1c2ccccc2C(=O)C1c1ccccc1 | inactive: 1.33
CC(C)[C@@H](C)/C=C/[C@@H](C)[C@H]1CC[C@H]2C3=CC=C4C[C@@H](O)CC[C@]4(C)[C@H]3CC[C@]12C | inactive: 1.1
CC1(C)C=Cc2c(c3c(c4c(=O)c(-c5ccc(O)cc5)coc24)OC(C)(C)CC3)O1 | inactive: -1.02
COc1ccc(-c2coc3cc(O)ccc3c2=O)cc1 | inactive: -1.87
Oc1c(Br)cc(Br)c2cccnc12 | inactive: -1.11
COc1ccc(C(=O)CCC(=O)O)c2ccccc12 | inactive: -0.641
NC(=O)c1ccccc1O | inactive: -12.3
COc1cc2c(cc1OC)C1C(=O)c3c(O)cc4c(c3OC1CO2)C=CC(C)(C)O4 (stereo not drawn) [alpha-TOXICAROL (dl)] | inactive: -14.9
Nc1nc(F)nc2c1ncn2[C@@H]1O[C@H](COP(=O)(O)O)[C@@H](O)[C@@H]1O | inactive: 0.928
CC(=O)[C@@]12O[C@](C)(c3ccccc3)O[C@@H]1C[C@H]1[C@@H]3CCC4=CC(=O)CC[C@]4(C)[C@H]3CC[C@@]12C | inactive: 1.92
COCCCC/C(=N\OCCN)c1ccc(C(F)(F)F)cc1 | inactive: 1.84
COC(=O)[C@H](c1ccccc1Cl)N1CCc2sccc2C1 | inactive: 2.58
C[C@]12CCC(=O)C=C1CC[C@@H]1[C@@H]2C(=O)C[C@@]2(C)[C@H]1CC[C@]2(O)C(=O)CO | inactive: 1.15
C[C@H](N[C@@H](CCc1ccccc1)C(=O)O)C(=O)N1CCC[C@H]1C(=O)O | active: 4.12
COc1cc(OC)c2c(=O)c(OC)c(-c3ccccc3)oc2c1 | inactive: 1.01
C[C@@H]1C[C@H]2[C@@H]3CCC4=CC(=O)C=C[C@]4(C)[C@@]3(F)[C@@H](O)C[C@]2(C)[C@@]1(O)C(=O)CO | inactive: 1.26
OC1(c2ccc(Cl)c(C(F)(F)F)c2)CCN(CCCC(c2ccc(F)cc2)c2ccc(F)cc2)CC1 | inactive: -0.338
O=C(O)COC(=O)Cc1ccccc1Nc1c(Cl)cccc1Cl | inactive: -0.29
Cc1cnc(NC(=O)C2=C(O)c3ccccc3S(=O)(=O)N2C)s1 | inactive: 2.31
O=C(O)CCCc1ccccc1 | inactive: 1.57 and inactive: 0.544

SMILES | ATP level
NC1=NCCN1CC(=O)O | inactive: -1.6
CC1(C)O[C@@H]2C[C@H]3[C@@H]4CCC5=CC(=O)C=C[C@]5(C)[C@@]4(F)[C@@H](O)C[C@]3(C)[C@]2(C(=O)CO)O1 | inactive: 2.4
C1CCN2C[C@@H]3C[C@@H](CN4CCCC[C@@H]34)[C@H]2C1 | inactive: -0.642
CC1CC(OC(=O)C(O)c2ccccc2)CC(C)(C)N1C (stereo not drawn) | inactive: 0.212
Cc1nnc(NS(=O)(=O)c2ccc(N)cc2)s1 | inactive: 1.16
COc1cc(NS(C)(=O)=O)ccc1Nc1c2ccccc2nc2ccccc12 | inactive: -30.5
CCN1CCN(c2cc3c(cc2F)c(=O)c(C(=O)O)cn3C2CC2)CC1 | inactive: -1.91
O=C1C2CC3CC1CC(O)(C3)C2 | inactive: 0.041
C#CCCCCCCCCCCCc1ccco1 | inactive: -0.139
Oc1ccc(OCc2ccccc2)cc1 | inactive: -24.5
C[C@H]1C[C@H]2[C@@H]3CCC4=CC(=O)C=C[C@]4(C)[C@@]3(F)[C@@H](O)C[C@]2(C)[C@@]1(O)C(=O)CO | inactive: 1.73
CC(C)C1=CC2=CC[C@@H]3[C@](C)(CCC[C@@]3(C)C(=O)O)[C@H]2CC1 | inactive: 2.05
O=C(NCCO[N+](=O)[O-])c1cccnc1 | inactive: 1.05
Cc1ccc(Cl)c(Nc2ccccc2C(=O)O)c1Cl | inactive: 1.34
CCN1CCN(C(=O)N[C@@H](C(=O)N[C@@H]2C(=O)N3C(C(=O)O)=C(CSc4nnnn4C)CS[C@H]23)c2ccc(O)cc2)C(=O)C1=O | inactive: 2.08
CN(C)CCOc1ccc(/C(=C(/CCCl)c2ccccc2)c2ccccc2)cc1 | inactive: 1.28
CO[C@@]12[C@H](COC(N)=O)C3=C(C(=O)C(C)=C(N)C3=O)N1C[C@@H]1N[C@@H]12 | inactive: -14.5
CC(C(=O)O)c1ccc(N2Cc3ccccc3C2=O)cc1 (stereo not drawn) | inactive: 0.881
CC1=Nc2ccc(Cl)cc2S(=O)(=O)N1 | inactive: -17.9
CCOC(=O)CCCCCCCCCCCCC1C=CCC1 (stereo not drawn) | inactive: -1.49
O=c1c(-c2ccc(O)cc2)coc2c([C@@H]3O[C@H](CO)[C@@H](O)[C@H](O)[C@H]3O)c(O)ccc12 | inactive: -1.78

SMILES | ATP level
Cc1cc(/C=C/c2ccc3cc(N(C)C)ccc3[n+]2C)c(C)n1-c1ccccc1 | inactive: -15
O=C(O)C(S)C(S)C(=O)O (stereo not drawn) | inactive: -0.135
O=S1(=O)OC(c2ccc(O)cc2)(c2ccc(O)cc2)c2ccccc21 | inactive: -0.551
CC(C)=CCC/C(C)=C/CC/C(C)=C/CC/C(C)=C/CC/C(C)=C/CC/C(C)=C/CC/C(C)=C/CC/C(C)=C/CC/C(C)=C/CO | inactive: 0.407
CCCCNc1ccc(C(=O)OCCOCCOCCOCCOCCOCCOCCOCCOCCOC)cc1 | active: 5.26
CC(C)(Oc1ccc(C(=O)c2ccc(Cl)cc2)cc1)C(=O)O | inactive: 1.38
COC(=O)CC[C@@H](C)[C@H]1CC[C@H]2[C@@H]3CC[C@@H]4C[C@H](O)CC[C@]4(C)[C@H]3C[C@H](O)[C@]12C | inactive: 0.574
O=C(O[C@@H]1Cc2c(O)cc(O)cc2O[C@@H]1c1cc(O)c(=O)c2c(O)c(O)cc([C@H]3Oc4cc(O)cc(O)c4C[C@H]3O)c2c1)c1cc(O)c(O)c(O)c1 | inactive: 2.3
CC1(C)CC[C@]2(C(=O)O)CC[C@]3(C)C(=CC[C@@H]4[C@@]5(C)CC[C@H](O)[C@@](C)(CO)[C@@H]5CC[C@]43C)[C@@H]2C1 | inactive: 0.364
O=c1cc(-c2cccc(O)c2)oc2cc(O)ccc12 | inactive: -2.54
CNC(C)C1CCC(N)C(OC2C(N)CC(N)C(OC3OCC(C)(O)C(NC)C3O)C2O)O1 (stereo not drawn) | inactive: 1.15
O=C1CC2(CCCC2)CC(=O)N1CCCCN1CCN(c2ncccn2)CC1 | inactive: -17.9
CC[C@H]1OC(=O)[C@H](C)[C@@H](O[C@H]2C[C@@](C)(OC)[C@@H](O)[C@H](C)O2)[C@H](C)[C@@H](O[C@@H]2O[C@H](C)C[C@H](N(C)C)[C@H]2O)[C@](C)(O)C[C@@H](C)[C@@H]2N[C@@H](COCCOC)O[C@H]([C@H]2C)[C@]1(C)O | inactive: 1.75
CC(C)/C(O)=C1/C(=O)O[C@@H](c2ccoc2)[C@]2(C)C(O)[C@@H](O)[C@@]34OC5(C)OC67CC(C)(C(O)[C@]6(O)[C@@H](O)[C@]3(O5)C12)[C@H](CC(=O)O)[C@]74C (stereo partly drawn) | inactive: -3.54
CC(=O)OC1CC2CCC1(C)C2(C)C (stereo not drawn) | inactive: -0.705
O=c1cc[nH]c(=S)[nH]1 | inactive: 0.641
CCC(C(=O)O)c1ccccc1 (stereo not drawn) | inactive: 2.46
CC(=O)O[C@@H]1CC2C(C)(C)C(=O)C3OC3[C@]2(C)C2CC[C@@]3(C)[C@H](c4ccoc4)OC(=O)C4OC43[C@@]21C (stereo partly drawn) | inactive: -6.55
CO/N=C(\C(=O)N[C@@H]1C(=O)N2C(C(=O)O)=C(COC(N)=O)CS[C@H]12)c1ccco1 | inactive: -13.8
O=C(NCC(O)CO)c1c(I)c(C(=O)NCC(O)CO)c(I)c(N(CCO)C(=O)CO)c1I (stereo not drawn) | inactive: 0.987
Nc1ccc(S(=O)(=O)Nc2ccnn2-c2ccccc2)cc1 | inactive: 0.798

SMILES | ATP level
FC(F)(Cl)C(F)(F)Cl | inactive: -1.76
CCC(=O)c1c(O)cc(O)cc1O | inactive: 1.2
CC1Cc2ccccc2N1NC(=O)c1ccc(Cl)c(S(N)(=O)=O)c1 (stereo not drawn) | inactive: 0.933
C[C@H](CCC(=O)O)[C@H]1CC[C@H]2[C@@H]3CC[C@@H]4C[C@H](O)CC[C@]4(C)[C@H]3C[C@H](O)[C@]12C | inactive: 2.34
Nc1ccc2cc3ccc(N)cc3nc2c1 | inactive: -3.81
COc1ccc2cc(C(C)C(=O)O)ccc2c1 (stereo not drawn) | inactive: 0.43
COc1c(O)cccc1O | inactive: -0.441
COC(=O)CC[C@@H](C)[C@H]1CC[C@H]2[C@@H]3[C@H](O)C[C@@H]4C[C@H](O)CC[C@]4(C)[C@H]3C[C@H](O)[C@]12C | inactive: 1.6
Cc1cc(CC(=O)O)n(C)c1C(=O)c1ccc(Cl)cc1 | inactive: 0.815
CC12CCC(CC1)C(C)(C)O2 | inactive: -0.802
CC(=O)Nc1ncc([N+](=O)[O-])s1 | inactive: -0.606
O=c1c(O)c(-c2ccccc2)oc2cc(O)ccc12 | inactive: 0.956
OC[C@H]1O[C@@H](Oc2cc(O)cc(/C=C/c3ccc(O)cc3)c2)[C@H](O)[C@@H](O)[C@@H]1O | inactive: -1.34
O=c1c(O)c(-c2ccc(O)cc2O)oc2cc(O)cc(O)c12 | inactive: -0.122
COc1cc(-c2coc3cc(O[C@@H]4O[C@H](CO)[C@@H](O)[C@H](O)[C@H]4O)c(OC)c(O)c3c2=O)cc(O)c1OC | inactive: -0.0154
Cc1c(O)c(=O)ccn1C | inactive: 0.731
c1ccc([C@H]2CN3CCSC3=N2)cc1 | inactive: -4.35
CCC(=O)O[C@]1(C(=O)CCl)[C@@H](C)C[C@H]2[C@@H]3CCC4=CC(=O)C=C[C@]4(C)[C@@]3(F)[C@@H](O)C[C@@]21C | inactive: 1.63
O=C1C[C@@H](c2ccc(O)cc2)Oc2cc(O)cc(O)c21 | inactive: 1.03
O=C1OCCN1/N=C/c1ccc([N+](=O)[O-])o1 | active: 3.29

Laid out differently: entries from further up
SMILES	ATP level
CC(=O)Nc1ncc([N+](=O)[O-])s1	inactive: -0.606
O=c1c(O)c(-c2ccccc2)oc2cc(O)ccc12	inactive: 0.956
OC[C@H]1O[C@@H](Oc2cc(O)cc(/C=C/c3ccc(O)cc3)c2)[C@H](O)[C@@H](O)[C@@H]1O	inactive: -1.34
O=c1c(O)c(-c2ccc(O)cc2O)oc2cc(O)cc(O)c12	inactive: -0.122
